The record followed here is PMC9260213.

Amino acid sequences for entries named in this document (tags omitted). A change or cut given only in a name is not applied to a line headed by its entry.
UniProt Q91WG4: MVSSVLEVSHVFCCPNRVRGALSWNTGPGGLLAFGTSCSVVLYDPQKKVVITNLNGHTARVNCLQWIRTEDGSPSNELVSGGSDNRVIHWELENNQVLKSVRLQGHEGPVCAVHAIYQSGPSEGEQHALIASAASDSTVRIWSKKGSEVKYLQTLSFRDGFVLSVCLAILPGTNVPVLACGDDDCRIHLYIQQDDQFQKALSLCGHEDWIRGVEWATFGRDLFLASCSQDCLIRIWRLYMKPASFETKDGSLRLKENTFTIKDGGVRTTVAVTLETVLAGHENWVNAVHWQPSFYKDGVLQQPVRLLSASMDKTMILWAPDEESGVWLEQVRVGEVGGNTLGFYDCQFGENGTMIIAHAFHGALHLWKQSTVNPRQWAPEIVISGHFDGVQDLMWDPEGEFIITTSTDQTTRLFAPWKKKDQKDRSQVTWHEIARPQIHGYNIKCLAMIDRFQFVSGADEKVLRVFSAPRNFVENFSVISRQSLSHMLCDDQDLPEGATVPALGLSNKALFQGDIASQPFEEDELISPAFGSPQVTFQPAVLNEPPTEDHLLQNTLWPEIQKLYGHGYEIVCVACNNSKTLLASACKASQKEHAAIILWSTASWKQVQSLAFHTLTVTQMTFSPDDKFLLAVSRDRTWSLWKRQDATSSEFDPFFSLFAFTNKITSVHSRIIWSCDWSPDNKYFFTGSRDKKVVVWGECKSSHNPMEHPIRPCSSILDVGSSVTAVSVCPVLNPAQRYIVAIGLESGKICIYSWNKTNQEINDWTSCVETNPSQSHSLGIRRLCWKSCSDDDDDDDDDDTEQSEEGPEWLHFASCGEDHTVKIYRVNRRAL

The target of assay [1] is T1, murine Elp3 (subunit of mElp123), Twin-Strep-tagged (murine) (UniProt Q9CZX0).
T1 sequence: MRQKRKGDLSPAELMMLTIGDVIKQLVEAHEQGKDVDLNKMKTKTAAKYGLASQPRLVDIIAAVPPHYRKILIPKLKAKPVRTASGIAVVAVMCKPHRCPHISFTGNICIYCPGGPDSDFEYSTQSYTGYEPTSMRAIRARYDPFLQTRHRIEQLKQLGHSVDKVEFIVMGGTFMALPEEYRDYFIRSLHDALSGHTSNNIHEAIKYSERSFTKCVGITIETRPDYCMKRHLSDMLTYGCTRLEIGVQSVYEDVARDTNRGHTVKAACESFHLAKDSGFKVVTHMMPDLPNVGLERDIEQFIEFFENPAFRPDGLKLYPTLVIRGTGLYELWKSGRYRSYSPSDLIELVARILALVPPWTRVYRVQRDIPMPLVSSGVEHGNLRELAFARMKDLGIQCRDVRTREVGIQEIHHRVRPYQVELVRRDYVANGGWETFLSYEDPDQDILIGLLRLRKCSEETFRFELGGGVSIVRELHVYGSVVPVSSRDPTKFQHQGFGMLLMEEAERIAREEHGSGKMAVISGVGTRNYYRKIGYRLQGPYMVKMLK
Briefly: pull-down; mElp123 co-expressed in Sf9-1 and purified as one complex via Twin-Strep on Elp3, held on Dynabeads MyOne Streptavidin C1 via Elp3, eluted with d-desthiobiotin; SDS-PAGE, Coomassie; both purified.

Assay [2] deals with T2, human Elp6 (subunit of hElp456) (Homo sapiens) (UniProt Q0PNE2).
T2 sequence: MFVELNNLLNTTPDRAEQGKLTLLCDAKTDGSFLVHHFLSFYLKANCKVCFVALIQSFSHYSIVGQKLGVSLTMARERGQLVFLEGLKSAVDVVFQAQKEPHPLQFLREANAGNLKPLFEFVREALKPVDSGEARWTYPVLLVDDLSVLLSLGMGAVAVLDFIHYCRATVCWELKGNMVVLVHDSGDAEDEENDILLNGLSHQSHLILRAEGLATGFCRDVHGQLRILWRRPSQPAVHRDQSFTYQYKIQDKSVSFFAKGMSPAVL
Put plainly: SEC; three subunits co-expressed and purified as one complex (human, murine: Hi-5 cells, IgG agarose via Protein A on Elp6, TEV cleavage); gel filtration on Superose 6 Increase 10/300 GL by the legend (S200 Increase 10/300 GL by the methods), 20 mM HEPES pH 7.5, 100 mM NaCl, 2 mM MgCl2, 5 mM DTT; eluted at ~220 kDa; production of the yeast complex not told; both purified. Background: In gel filtration, larger molecules generally elute earlier.

For assay [3], the target named is T3, murine Elp6 (subunit of mElp456) (Mus musculus) (UniProt Q8BK75).
T3 sequence: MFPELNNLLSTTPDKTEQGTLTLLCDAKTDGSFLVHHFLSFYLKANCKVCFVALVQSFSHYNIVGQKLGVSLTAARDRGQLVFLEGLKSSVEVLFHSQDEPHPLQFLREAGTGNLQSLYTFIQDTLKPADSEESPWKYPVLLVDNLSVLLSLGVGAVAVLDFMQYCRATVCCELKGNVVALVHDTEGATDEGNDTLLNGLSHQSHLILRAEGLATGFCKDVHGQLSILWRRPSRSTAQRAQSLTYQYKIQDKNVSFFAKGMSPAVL
Briefly: co-purification; mElp456 variants co-expressed in Hi-5 cells, captured from lysate on IgG agarose via Protein A on Elp6, TEV cleavage, gel filtration.

Assay [4] deals with T4, murine Elp123 subcomplex, wild type (murine) (UniProt Q7TT37+Q91WG4+Q9CZX0). Put plainly: SEC; mElp123WT incubated with Elp456 variants 30 min at 25°C in 2:1 ratio, then Superose 6 Increase 10/300 GL in 20 mM HEPES pH 7.5, 100 mM NaCl, 5 mM DTT; co-migration; both purified.
Assay [5] concerns the target T4, murine Elp123 subcomplex, wild type (murine). Put plainly: pull-down; mElp123WT immobilised on Dynabeads MyOne Streptavidin C1 via Twin-Strep-tagged Elp3, incubated with Elp456 variants 30 min at 4°C, washed 3 times (20 mM HEPES pH 7.5, 100 mM NaCl, 1 mM DTT, 0.05% Tween 20), eluted with 5 mM d-desthiobiotin; Coomassie; both purified.

Changes are numbered by the printed parent chain. In names and notes the source's numbering stands. These are yes or no findings as the source states them, for the method shown. Some results given as binding are weak or reduced against the parent protein; the word gives no strength. For some assays here: Tags and fused reporters may be left off the sequences shown.

B1: murine Elp1 (subunit of mElp123) (protein, UniProt Q7TT37 1-1333)
chain: MRNLKLHRTLEFRDIQAPGKPQCFCLRAEQGTVLIGSERGLTEVDPVRREVKTEISLVAEGFLPEDGSGCIVGIQDLLDQESVCVATASGDVIVCNLSTQQLECVGSVASGISVMSWSPDQELLLLATAQQTLIMMTKDFEVIAEEQIHQDDFGEGKFVTVGWGSKQTQFHGSEGRPTAFPVQLPENALPWDDRRPHITWRGDGQYFAVSVVCRQTEARKIRVWNREFALQSTSESVPGLGPALAWKPSGSLIASTQDKPNQQDVVFFEKNGLLHGHFTLPFLKDEVKVNDLLWNADSSVLAIWLEDLPKEDSSTLKSYVQLWTVGNYHWYLKQSLPFSTTGKNQIVSLLWDPVTPCRLHVLCTGWRYLCCDWHWTTDRSSGNSANDLANVAVIDGNRVLVTVFRQTVVPPPMCTYRLLIPHPVNQVIFSAHLGNDLAVLDASNQISVYKCGDKPNMDSTVKLGAVGGNGFKVPLTTPHLEKRYSIQFGNNEEEEEEEVNALQLSFLTWVEDDTFLAISYSHSSSQSIIHHLTVTHSEVDEEQGQLDVSSSVTVDGVVIGLCCCSKTKSLAVQLADGQVLKYLWESPSLAVEPWKNSEGIPVRFVHPCTQMEVATIGGEECVLGLTDRCRFFINDTEVASNITSFAVCDDFLLVTTHSHTCQVFSLSGASLKMLQAALSGSHEASGEILRKVERGSRIVTVVPQDTKLILQMPRGNLEVVHHRALVLAQIRKWLDKLMFKEAFECMRKLRINLNLIHDHNPKVFLENVETFVKQIDSVNHINLFFTELREEDVTKTMYPPPITKSVQVSTHPDGKKLDLICDAMRAAMEAINPRKFCLSILTSHVKKTTPELEIVLQKVQELQGNLPFDPESVSVEEALKYLLLLVDVNELFNHSLGTYDFNLVLMVAEKSQKDPKEYLPFLNTLKKMETNYQRFTIDKYLKRYEKALGHLSKCGPEYFTECLNLIKDKNLYKEALKLYRPDSPQYQAVSMAYGEHLMQEHLYEPAGLVFARCGAQEKALEAFLACGSWQQALCVAAQLQMSKDKVAGLARTLAGKLVEQRKHSEAATVLEQYAQDYEEAVLLLLEGSAWEEALRLVYKYDRVDIIETSVKPSILEAQKNYMDFLDSETATFIRHKNRLQVVRALRRQAPQVHVDHEVAHGPESDLFSETSSIMSGSEMSGRYSHSNSRISARSSKNRRKAERKKHSLKEGSPLEGLALLEALSEVVQSVEKLKDEVRAILKVLFLFEFEEQAKELQRAFESTLQLMERAVPEIWTPAGQQSSTTPVLGPSSTANSITASYQQQKTCVPALDAGVYMPPKMDPRSQWKLSLLE
Consider B1, for which the binding entry in assay [1] is “binds”.

B2: human Elp5 (subunit of hElp456) (protein, UniProt Q8TE02 1-300)
chain: MLDSLLALGGLVLLRDSVEWEGRSLLKALVKKSALCGEQVHILGCEVSEEEFREGFDSDINNRLVYHDFFRDPLNWSKTEEAFPGGPLGALRAMCKRTDPVPVTIALDSLSWLLLRLPCTTLCQVLHAVSHQDSCPGDSSSVGKVSVLGLLHEELHGPGPVGALSSLAQTEVTLGGTMGQASAHILCRRPRQRPTDQTQWFSILPDFSLDLQEGPSVESQPYSDPHIPPVDPTTHLTFNLHLSKKEREARDSLILPFQFSSEKQQALLRPRPGQATSHIFYEPDAYDDLDQEDPDDDLDI
As for B2, the binding entry in assay [2] is on record as “binds”.

B3: murine Elp4 Y90C (protein, UniProt Q9ER73 1-422)
chain: MAAADTCGAGTLSSRSVASEAGQGGTSSFQRKGKASGGPGGGPRLLSIAGTRPSVRNGQLLVSTGLPALDQLLGGGLAVGTLLLIEEDKCNIYSPLLFKYFMAEGIINGHTLLVASAKENPAKILQELPAPLLDDNSKKELEDVHSAKTPEPNVNMKIAWRYQLQPKMEVGPVSSSRFGHYYDLSKRIPWELLQSSKWHGFFLPEHISPDLKGESCFLSCGYMRLLEFIQKSVYAEGFDGANPQKKQKNILRIGIQNLGSPLWGDDICCKENCDNNHRLTKFLYILRGLLRSSLSACIITMPAHLVQNKSITTRVRNLSDTVVGLESFIGSERETNPLYKDYHGLIHIRKIPRLNNLTCDESDVKDLAFKLKRKLFTIERLHLPPDLSDTVGRSSKQDLAASTARLGAGCSSMAEGKKHLDF
As for B3, the binding entry in assay [3] was “binds”.

B4: murine Elp4 L294I (protein, UniProt Q9ER73 1-422)
chain: B3 chain with C90Y, L294I
For the molecule B4, the binding result in assay [3] was “binds”.

B5: murine Elp456 subcomplex with Elp6 L126Q (complex, UniProt Q9ER73 1-422; Q99L85 1-300; Q8BK75 1-266)
chain 1: B3 chain with C90Y
chain 2: MLDSLLAIGGLVLLRDSVEWEGRSLLKALIKKSALRGEQVHVLGCEVSEEEFREGFDSDVNSRLVYHDLFRDPLNWSKPGEAVPEGPLKALRSMCKRTDHGSVTIALDSLSWLLCHIPCVTLCQALHALSQQNGDPGDNSLVEQVRVLGLLHEELHGPGSMGALNTLAHTEVTLSGKVDQTSASILCRRPQQRATYQTWWFSVLPDFSLTLHEGLPLRSELHPDHHTTQVDPTAHLTFNLHLSKKEREARDSLTLPFQFSSEKQKALLHPVPSRTTGHIFYEPDAFDDVDPEDPDDDLDI
chain 3: T3 sequence with L126Q
Turning to B5, the binding entry in assay [4] and in assay [5] was “binds” in each case.

B6: murine Elp456 subcomplex, wild type (complex, UniProt Q9ER73 1-422; Q99L85 1-300; Q8BK75 1-266)
chain 1: B3 chain with C90Y
chain 2: B5 chain 2
chain 3: T3 sequence
With B6, the binding result in assay [4] and in assay [5] was “binds” each time.

B7: murine Elp456 subcomplex with Elp6 L118W (complex, UniProt Q9ER73 1-422; Q99L85 1-300; Q8BK75 1-266)
chain 1: B3 chain with C90Y
chain 2: B5 chain 2
chain 3: T3 sequence with L118W
Regarding B7, the binding entry in assay [4] and in assay [5] was “binds” in each case.

B8: murine Elp456 subcomplex with Elp4 Y90C (complex, UniProt Q9ER73 1-422; Q99L85 1-300; Q8BK75 1-266)
chain 1: B3 chain
chain 2: B5 chain 2
chain 3: T3 sequence
As to B8, the binding result in assay [4] and in assay [5] was “binds” throughout.

B9: murine Elp456 subcomplex with Elp4 L294I (complex, UniProt Q9ER73 1-422; Q99L85 1-300; Q8BK75 1-266)
chain 1: B3 chain with C90Y, L294I
chain 2: B5 chain 2
chain 3: T3 sequence
For the molecule B9, the binding entry in assay [4] and in assay [5] was “binds” in each case.
